The values below come from PMC12408345.

The chains behind the UniProt entries cited, without tags or fusion partners.
UniProt Q9Y397: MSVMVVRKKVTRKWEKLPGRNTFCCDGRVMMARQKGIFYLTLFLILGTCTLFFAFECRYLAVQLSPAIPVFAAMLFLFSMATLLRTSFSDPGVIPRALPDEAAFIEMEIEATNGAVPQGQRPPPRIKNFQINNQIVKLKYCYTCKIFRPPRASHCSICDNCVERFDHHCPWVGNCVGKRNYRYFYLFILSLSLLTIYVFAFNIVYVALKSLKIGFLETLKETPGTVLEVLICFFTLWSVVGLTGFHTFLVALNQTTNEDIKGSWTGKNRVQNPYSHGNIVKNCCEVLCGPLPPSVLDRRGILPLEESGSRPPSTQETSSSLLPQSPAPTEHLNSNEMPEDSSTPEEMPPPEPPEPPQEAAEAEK
UniProt P46937: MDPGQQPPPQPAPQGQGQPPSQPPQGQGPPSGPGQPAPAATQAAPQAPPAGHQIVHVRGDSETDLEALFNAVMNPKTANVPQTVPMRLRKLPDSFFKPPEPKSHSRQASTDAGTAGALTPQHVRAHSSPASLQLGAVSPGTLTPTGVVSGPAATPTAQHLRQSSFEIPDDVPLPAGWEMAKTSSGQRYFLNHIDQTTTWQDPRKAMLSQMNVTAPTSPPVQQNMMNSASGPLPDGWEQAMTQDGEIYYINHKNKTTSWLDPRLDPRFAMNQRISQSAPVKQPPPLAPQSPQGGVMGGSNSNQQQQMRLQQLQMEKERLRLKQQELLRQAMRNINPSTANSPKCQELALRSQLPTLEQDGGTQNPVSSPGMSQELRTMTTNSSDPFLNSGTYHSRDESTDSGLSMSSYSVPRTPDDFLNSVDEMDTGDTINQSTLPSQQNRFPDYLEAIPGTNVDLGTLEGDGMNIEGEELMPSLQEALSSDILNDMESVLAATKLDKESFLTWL

Results are given in words; binding and its absence hold for the method and conditions named. Binding seen in cells or lysates may run through a third protein. Some binding calls cover weakened binding; strength is not graded here. For part of these data: Tags and fused reporters may be left off the sequences shown.

One experiment addresses T1, STRN4-3×Flag (human) (UniProt Q9NRL3).
T1 sequence: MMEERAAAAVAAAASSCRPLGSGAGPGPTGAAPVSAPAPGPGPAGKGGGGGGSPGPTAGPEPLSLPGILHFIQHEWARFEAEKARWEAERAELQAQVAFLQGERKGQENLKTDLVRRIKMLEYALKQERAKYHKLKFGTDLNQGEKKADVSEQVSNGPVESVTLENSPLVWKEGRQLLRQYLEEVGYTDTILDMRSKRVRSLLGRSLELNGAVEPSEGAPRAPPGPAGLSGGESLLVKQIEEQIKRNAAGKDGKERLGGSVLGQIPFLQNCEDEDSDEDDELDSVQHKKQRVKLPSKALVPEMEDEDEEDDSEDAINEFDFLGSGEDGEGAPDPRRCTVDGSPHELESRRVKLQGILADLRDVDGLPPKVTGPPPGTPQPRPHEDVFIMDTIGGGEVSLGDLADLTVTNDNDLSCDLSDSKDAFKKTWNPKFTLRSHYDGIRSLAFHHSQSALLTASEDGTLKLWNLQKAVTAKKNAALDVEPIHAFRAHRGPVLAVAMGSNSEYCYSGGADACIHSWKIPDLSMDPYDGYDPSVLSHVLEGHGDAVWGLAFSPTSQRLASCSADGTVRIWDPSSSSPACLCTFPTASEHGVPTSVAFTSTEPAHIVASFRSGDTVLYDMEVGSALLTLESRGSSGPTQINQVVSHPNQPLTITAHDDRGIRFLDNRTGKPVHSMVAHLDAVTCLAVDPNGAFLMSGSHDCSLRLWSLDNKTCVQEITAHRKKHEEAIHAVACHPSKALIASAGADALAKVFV
Kind of experiment: co-IP; overexpressed tagged proteins in HEK293T cells; lysis in 50 mM HEPES pH 7.4, 150 mM NaCl, 1% NP-40 with protease and phosphatase inhibitors; antibody overnight, protein A/G agarose 8 h at 4°C; four PBS washes; immunoblot. (In general: Immunoblotting shows a protein as a band on a membrane.)

In experiment [1] the target is T2, STRN4 (endogenous, HCT116) (human (endogenous in HCT116)) (UniProt Q9NRL3).
T2 sequence: T1 sequence
Kind of experiment: co-IP; endogenous proteins in HCT116 cells; lysis in 50 mM HEPES pH 7.4, 150 mM NaCl, 1% NP-40 with protease and phosphatase inhibitors; antibody overnight, protein A/G agarose 8 h at 4°C; four PBS washes; immunoblot.

Consider “DHHC9-3×HA (from UniProt Q9Y397 1-364) (enzyme)”, for which, in the experiment with STRN4-3×Flag (human), the binding result was “binds”.

For the substance Myc-YAP1 (from UniProt P46937 1-504), the binding result with STRN4-3×Flag (human) was “binds”. In the case of “DHHC9 (endogenous, HCT116) (from UniProt Q9Y397 1-364) (enzyme)”, the binding result in experiment [1] is “binds”.
